# Measurements published in patent US20090047287A1, “MODULATION OF BONE FORMATION” (Wyeth, priority 2006, published 2009).
# Chains of the proteins cited; added tags and fusions are not shown. Lines headed by an entry give the natural chain unless they say otherwise; changes in a name come on top. Residues count along the entry.
# UniProt P31946: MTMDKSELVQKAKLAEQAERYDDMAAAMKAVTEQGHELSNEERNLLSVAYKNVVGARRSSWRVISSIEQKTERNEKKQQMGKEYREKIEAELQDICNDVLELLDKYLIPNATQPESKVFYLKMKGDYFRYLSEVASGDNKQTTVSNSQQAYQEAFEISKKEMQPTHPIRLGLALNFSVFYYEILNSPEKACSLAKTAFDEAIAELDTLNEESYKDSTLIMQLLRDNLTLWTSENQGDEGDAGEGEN
# endogenous 14-3-3β protein of U2OS human osteosarcoma cells: residues 2-246 of P31946
# No constants are given. Whether binding was seen depends on the method and setting. Binding seen in cells or lysates may run through a third protein. Some entries that bind do so weakly or less than the wild type. For some assays here: Where a sequence is shown, tags or fusion partners need not be part of it.
# What was measured:
# [1] = molecular target: endogenous 14-3-3β protein of U2OS human osteosarcoma cells (human) (UniProt P31946); test: reverse co-immunoprecipitation on anti-14-3-3β antibody from U2OS lysates, immunoblot with anti-Flag
# [2] = molecular target: endogenous 14-3-3β protein of U2OS human osteosarcoma cells (human) (UniProt P31946); test: co-immunoprecipitation on anti-Flag affinity agarose from U2OS lysates, immunoblot with anti-14-3-3β
# [3] = molecular target: endogenous 14-3-3β protein of U2OS human osteosarcoma cells (human) (UniProt P31946); test: co-immunoprecipitation from U2OS lysates (figure legend)
# [4] = molecular target: T1, GST fusion of the cytosolic domain of human Ror2 (amino acids 428-944), made in E. coli from pGEX-4T-2 (human) (UniProt Q01974); test: GST pull-down on glutathione sepharose (figure legend)
# T1 sequence (looked up): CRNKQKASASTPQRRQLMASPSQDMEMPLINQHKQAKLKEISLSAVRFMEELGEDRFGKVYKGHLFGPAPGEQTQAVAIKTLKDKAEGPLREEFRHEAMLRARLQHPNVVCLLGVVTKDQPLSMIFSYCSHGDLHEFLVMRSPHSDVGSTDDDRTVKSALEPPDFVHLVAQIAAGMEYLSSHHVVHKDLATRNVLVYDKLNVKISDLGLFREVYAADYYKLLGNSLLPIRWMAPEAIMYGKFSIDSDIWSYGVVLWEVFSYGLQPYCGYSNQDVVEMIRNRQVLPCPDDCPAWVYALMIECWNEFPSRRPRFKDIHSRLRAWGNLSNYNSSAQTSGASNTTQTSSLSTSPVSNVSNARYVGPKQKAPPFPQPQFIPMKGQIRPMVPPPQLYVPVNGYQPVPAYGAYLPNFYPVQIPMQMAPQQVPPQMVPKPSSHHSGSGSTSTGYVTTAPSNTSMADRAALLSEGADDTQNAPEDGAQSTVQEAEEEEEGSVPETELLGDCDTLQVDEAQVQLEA
# [5] = molecular target: T1, GST fusion of the cytosolic domain of human Ror2 (amino acids 428-944), made in E. coli from pGEX-4T-2 (human); test: GST pull-down on glutathione sepharose, immunoblot with anti-14-3-3β
binding [1],binding [2],binding [3],binding [4],binding [5],Substance
binds,binds,binds,–,–,human Ror2 with COOH-terminal Flag epitope tag (wild-type) (from UniProt Q01974 34-943) (receptor)
–,–,–,binds,binds,in vitro translated full-length human 14-3-3β (from 14-3-3β-pET28a) (from UniProt P31946 1-246)
